The values below come from article PMC7909581.

Sequences of proteins named here, by UniProt entry; tags and fusion partners are left off. A change or cut given only in a name is not applied to a line headed by its entry. A line that says so, or that is headed by a name, gives the form on record, which may keep a tag or linker. Residues count along the entry.
UniProt O35382: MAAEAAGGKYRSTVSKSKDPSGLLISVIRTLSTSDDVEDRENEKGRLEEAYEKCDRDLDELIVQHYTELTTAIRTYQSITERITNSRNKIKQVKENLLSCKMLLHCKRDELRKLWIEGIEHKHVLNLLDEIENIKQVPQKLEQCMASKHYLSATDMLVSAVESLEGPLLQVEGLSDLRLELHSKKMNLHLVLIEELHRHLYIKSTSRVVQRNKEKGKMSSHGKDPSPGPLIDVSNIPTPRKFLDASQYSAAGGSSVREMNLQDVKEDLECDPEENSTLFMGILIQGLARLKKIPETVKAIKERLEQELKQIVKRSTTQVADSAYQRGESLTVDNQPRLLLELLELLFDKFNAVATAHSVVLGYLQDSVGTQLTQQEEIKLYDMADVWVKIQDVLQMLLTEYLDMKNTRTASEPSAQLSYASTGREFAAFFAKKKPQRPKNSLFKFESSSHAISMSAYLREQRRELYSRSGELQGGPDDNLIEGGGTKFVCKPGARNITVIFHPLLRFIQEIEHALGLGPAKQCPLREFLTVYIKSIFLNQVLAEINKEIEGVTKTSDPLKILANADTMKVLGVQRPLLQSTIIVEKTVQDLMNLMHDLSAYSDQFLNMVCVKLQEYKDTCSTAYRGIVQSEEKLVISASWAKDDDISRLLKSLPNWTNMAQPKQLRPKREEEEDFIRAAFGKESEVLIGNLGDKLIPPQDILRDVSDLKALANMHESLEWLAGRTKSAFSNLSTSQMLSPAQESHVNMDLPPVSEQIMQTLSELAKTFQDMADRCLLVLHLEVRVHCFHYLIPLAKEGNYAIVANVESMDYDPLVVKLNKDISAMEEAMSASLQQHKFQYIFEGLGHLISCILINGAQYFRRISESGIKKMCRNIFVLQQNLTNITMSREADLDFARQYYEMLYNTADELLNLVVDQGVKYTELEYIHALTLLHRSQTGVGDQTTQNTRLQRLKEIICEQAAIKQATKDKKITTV
UniProt Q96A65: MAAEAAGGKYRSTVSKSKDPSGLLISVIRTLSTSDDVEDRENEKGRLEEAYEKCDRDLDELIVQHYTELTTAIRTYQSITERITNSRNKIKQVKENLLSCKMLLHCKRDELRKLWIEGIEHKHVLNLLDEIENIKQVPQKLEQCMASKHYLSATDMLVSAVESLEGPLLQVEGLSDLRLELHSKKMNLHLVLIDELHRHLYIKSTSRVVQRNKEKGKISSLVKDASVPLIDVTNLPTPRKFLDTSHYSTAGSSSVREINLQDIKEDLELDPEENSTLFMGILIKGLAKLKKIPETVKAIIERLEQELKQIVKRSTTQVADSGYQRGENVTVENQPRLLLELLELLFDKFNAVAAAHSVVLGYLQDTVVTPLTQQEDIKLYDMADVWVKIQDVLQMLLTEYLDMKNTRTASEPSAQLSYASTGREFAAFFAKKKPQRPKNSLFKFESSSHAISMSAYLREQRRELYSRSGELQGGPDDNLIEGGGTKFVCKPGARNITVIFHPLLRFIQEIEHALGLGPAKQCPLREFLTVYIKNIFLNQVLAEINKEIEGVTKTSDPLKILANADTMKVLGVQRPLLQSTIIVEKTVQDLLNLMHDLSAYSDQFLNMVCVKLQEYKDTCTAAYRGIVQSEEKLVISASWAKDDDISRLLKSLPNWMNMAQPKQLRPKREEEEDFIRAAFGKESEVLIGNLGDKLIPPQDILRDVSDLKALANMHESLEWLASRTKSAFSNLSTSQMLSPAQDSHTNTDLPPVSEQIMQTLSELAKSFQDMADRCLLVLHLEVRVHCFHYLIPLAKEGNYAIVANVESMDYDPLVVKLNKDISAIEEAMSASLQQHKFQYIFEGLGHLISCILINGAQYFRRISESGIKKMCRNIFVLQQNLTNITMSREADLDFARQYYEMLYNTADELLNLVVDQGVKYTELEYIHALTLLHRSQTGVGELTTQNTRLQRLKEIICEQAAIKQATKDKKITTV
UniProt Q5S007: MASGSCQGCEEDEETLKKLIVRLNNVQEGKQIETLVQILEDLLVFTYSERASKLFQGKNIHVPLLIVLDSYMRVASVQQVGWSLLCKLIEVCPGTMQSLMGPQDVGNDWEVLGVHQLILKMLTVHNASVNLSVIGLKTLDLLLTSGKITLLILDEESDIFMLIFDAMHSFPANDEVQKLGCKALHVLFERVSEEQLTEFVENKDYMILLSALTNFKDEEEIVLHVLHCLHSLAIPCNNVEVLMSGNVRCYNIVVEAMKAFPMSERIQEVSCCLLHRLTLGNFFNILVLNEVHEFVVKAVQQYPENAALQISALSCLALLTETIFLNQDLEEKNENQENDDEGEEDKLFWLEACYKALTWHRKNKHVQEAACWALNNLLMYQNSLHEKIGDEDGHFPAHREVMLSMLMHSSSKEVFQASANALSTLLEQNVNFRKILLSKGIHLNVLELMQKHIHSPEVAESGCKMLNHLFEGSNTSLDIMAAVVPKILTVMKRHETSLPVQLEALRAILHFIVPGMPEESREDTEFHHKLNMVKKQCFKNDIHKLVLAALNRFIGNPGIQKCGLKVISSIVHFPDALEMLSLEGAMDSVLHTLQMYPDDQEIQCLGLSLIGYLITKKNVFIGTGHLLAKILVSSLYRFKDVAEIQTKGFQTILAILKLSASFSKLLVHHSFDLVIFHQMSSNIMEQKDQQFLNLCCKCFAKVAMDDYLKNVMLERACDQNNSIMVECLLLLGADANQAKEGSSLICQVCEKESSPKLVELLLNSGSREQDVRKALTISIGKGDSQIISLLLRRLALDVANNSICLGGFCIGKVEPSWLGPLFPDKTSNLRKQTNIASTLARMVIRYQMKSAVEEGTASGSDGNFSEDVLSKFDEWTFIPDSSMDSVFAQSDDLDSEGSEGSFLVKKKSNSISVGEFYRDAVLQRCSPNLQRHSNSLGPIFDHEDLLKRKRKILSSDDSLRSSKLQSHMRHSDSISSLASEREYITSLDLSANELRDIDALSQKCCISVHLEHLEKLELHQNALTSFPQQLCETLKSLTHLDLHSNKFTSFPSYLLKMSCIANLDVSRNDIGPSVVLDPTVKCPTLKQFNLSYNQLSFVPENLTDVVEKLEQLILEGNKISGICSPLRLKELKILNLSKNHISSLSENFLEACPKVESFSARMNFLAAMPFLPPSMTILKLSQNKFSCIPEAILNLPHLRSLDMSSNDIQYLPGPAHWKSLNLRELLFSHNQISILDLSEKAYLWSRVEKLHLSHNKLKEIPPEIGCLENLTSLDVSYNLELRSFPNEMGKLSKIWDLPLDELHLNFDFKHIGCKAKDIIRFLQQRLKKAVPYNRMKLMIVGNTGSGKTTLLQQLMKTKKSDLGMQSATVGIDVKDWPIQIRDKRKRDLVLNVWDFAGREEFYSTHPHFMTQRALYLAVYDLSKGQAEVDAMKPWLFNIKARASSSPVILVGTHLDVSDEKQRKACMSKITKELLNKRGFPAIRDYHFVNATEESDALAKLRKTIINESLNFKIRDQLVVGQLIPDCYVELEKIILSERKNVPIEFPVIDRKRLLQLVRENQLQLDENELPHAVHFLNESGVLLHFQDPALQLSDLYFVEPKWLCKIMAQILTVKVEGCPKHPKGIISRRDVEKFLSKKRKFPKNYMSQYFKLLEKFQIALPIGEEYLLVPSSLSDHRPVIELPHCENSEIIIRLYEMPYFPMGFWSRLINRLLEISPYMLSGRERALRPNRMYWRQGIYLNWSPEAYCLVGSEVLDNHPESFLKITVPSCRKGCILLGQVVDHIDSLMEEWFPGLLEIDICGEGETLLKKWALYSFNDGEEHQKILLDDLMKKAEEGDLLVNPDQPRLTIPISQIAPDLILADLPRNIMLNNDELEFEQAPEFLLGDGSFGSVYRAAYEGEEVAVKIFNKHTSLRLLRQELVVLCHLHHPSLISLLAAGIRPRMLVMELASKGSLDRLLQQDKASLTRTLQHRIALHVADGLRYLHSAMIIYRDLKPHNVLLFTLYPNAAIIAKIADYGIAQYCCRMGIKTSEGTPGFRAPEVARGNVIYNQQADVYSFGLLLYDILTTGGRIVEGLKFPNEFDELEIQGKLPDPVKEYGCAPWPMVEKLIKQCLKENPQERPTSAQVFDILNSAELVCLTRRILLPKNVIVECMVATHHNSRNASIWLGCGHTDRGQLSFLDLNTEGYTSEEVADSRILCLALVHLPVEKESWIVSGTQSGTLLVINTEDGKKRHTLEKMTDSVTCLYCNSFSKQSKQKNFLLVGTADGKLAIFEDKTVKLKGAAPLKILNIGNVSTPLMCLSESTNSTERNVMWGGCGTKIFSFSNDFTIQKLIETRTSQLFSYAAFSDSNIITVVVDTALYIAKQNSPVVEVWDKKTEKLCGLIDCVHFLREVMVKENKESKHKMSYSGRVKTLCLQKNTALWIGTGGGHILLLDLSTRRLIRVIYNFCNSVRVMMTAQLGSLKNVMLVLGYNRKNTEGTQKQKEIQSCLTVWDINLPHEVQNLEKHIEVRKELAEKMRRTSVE
GST-Kinase (LRRK2 kinase domain fused to GST): residues 1879-2138 of Q5S007
UniProt Q62824: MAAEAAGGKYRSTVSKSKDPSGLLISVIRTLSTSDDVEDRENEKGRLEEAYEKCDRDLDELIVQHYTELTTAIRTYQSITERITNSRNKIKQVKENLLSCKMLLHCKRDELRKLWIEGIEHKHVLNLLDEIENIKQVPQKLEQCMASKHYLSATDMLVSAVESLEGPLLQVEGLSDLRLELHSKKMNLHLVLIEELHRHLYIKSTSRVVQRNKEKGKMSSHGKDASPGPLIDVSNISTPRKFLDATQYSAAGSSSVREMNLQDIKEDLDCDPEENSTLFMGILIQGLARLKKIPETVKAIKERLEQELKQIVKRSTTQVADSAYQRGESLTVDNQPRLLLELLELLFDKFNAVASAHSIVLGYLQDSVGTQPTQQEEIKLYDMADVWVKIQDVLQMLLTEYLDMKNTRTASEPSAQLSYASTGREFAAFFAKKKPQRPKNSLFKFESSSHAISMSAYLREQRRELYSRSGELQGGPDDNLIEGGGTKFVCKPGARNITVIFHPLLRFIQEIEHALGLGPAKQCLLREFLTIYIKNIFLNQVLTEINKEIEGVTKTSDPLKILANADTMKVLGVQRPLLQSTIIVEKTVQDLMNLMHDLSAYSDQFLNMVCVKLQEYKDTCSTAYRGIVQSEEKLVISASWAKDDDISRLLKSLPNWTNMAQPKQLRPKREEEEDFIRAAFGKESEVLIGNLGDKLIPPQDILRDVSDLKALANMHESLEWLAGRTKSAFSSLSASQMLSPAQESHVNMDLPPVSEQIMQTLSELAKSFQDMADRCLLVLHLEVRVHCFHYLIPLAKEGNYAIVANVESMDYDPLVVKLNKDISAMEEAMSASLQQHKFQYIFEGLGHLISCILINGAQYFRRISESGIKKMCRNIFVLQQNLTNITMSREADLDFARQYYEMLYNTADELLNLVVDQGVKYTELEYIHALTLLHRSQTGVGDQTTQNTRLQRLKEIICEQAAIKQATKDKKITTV
UniProt O60645: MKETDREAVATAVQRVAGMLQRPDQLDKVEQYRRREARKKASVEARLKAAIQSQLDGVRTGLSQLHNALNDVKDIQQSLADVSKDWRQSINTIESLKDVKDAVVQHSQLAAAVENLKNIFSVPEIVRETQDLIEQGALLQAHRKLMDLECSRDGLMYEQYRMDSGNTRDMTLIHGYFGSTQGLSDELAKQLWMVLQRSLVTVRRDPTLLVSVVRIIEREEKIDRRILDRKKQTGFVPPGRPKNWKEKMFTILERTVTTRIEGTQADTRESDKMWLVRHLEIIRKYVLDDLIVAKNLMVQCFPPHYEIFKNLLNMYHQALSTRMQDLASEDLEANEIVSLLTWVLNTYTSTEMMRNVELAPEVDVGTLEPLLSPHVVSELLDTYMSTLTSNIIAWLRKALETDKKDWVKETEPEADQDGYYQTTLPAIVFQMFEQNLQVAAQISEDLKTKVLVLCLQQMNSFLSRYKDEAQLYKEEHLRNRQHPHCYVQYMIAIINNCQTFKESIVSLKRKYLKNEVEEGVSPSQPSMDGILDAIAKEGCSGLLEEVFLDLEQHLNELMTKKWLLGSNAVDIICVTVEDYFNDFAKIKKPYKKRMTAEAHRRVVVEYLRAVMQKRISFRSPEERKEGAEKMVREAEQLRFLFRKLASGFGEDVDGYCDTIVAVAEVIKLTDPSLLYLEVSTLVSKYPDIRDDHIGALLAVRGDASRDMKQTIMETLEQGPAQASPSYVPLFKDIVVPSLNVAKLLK

The target in experiment [1] is Sec8 (endogenous, mouse brain) (mouse (endogenous in mouse brain)) (UniProt O35382). Nature of the experiment: co-IP; mouse brain protein extracts (striatal tissue) of WT or LRRK2 knock-out mice; IP with anti-Sec8 or anti-IgG, blot with anti-LRRK2; endogenous proteins.
The target in experiment [2] is Flag-hSec8 WT (human) (UniProt Q96A65). Nature of the experiment: co-IP; HEK293 co-transfected 48 h with Flag-Sec8 (WT or deletion mutants) and Myc-LRRK2 (WT or deletion mutants); NP40 lysis buffer; IP with anti-Flag, blot with anti-Myc.
The target in experiment [3] is GST-Kinase (LRRK2 kinase domain fused to GST) (UniProt Q5S007). Nature of the experiment: pull-down; 500 ng GST-LRRK2 domain on glutathione-Sepharose incubated with 5 mg mouse brain protein extract at 4 °C overnight (50 mM Tris-HCl pH 8.0, 150 mM NaCl, 1% NP-40); five washes; SDS-PAGE, colloidal Coomassie stain, band identified by MALDI mass spectrometry; only the target purified.

The target of experiment [4] is Myc-LRRK2 WT (UniProt Q5S007). Nature of the experiment: co-IP; HEK293 co-transfected 48 h with Flag-ratSec8 and Myc-LRRK2 WT; NP40 lysis buffer (150 mM NaCl, 1% NP40, 20 mM Tris-HCl pH 7.5); IP with anti-Myc, blot with anti-Flag.
Experiment [5] addresses Flag-hSec8 WT (human) (UniProt Q96A65). As to the kind of experiment: co-IP; HEK293 transfected 48 h with Flag-Sec8 alone or with Myc-LRRK2 (WT, G2019S, ΔKin or ΔWD40), with or without LRRK2 kinase inhibitor CZC-25146 (1 μM, 3 h before lysis); IP with anti-Flag, blot with anti-Exo70 or anti-Sec6 (endogenous proteins).
Experiment [6] has as its target Myc-LRRK2 WT (UniProt Q5S007). Nature of the experiment: cross-linking + co-IP; HEK293 transfected 48 h with Myc-LRRK2 WT; cells treated with 2 mM DSS for 30 min at room temperature before lysis in NP40 buffer; IP with anti-Myc, blot with anti-Sec8 (endogenous Sec8).

These are yes or no findings as the source states them, for the method shown. In cells and extracts the contact can be indirect. Some binding calls cover weakened binding; strength is not graded here.

For “LRRK2 (endogenous, mouse brain) (from UniProt Q5S006 1-2527)”, the binding entry in experiment [1] is given as “binds”. As for “Myc-LRRK2 WT (from UniProt Q5S007 1-2527)”, in experiment [2], the binding entry is listed as “binds”.

With “Sec8 (endogenous, mouse brain) (from UniProt O35382 1-975)”, in experiment [3], the binding entry is reported as “binds”.

Take “Flag-ratSec8 (from UniProt Q62824 1-975)”: the binding entry in experiment [4] is on record as “binds”. With “Sec6 (endogenous, HEK293) (from UniProt O60645 1-745)”, the binding result in experiment [5] was “binds weakly”. Consider “Sec8 (endogenous, HEK293) (from UniProt Q96A65 1-974)”, for which the binding result in experiment [6] is on record as “binds”.
